The target of assay [1] is SNAP25 (mouse (endogenous in mouse brain synaptosomes)) (UniProt P60879). Kind of assay: condition: only in FLAG-α2aAR synaptosomes.
The target is the same in assay [2]. Kind of assay: affinity purification with mass spectrometry.

Amino acid sequences for entries named in this document (tags omitted).
UniProt P60879: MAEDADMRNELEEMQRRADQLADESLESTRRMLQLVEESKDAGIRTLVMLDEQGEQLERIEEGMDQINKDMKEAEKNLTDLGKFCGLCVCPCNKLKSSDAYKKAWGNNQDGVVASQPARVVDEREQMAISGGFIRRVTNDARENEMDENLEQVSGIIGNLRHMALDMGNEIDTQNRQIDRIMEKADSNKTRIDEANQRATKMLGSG
UniProt P29387: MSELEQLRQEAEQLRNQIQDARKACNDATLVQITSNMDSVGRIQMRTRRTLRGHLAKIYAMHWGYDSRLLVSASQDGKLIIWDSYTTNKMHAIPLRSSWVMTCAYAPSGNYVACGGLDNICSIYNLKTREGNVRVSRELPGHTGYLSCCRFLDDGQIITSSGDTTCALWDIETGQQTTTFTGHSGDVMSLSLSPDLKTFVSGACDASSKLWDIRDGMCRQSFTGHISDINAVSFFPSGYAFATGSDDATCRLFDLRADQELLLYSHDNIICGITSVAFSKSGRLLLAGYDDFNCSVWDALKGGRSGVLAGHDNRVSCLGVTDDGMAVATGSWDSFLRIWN

From article doi:10.1101/2020.04.29.065136 come the findings set out here.

No constants are given. Whether binding was seen depends on the method and setting. In cells and extracts the contact can be indirect. These calls come from enrichment with a bait or labelling near it, and not all partners need be listed. For some assays here: A no says only that the protein was not detected with the bait.

Turning to Gβ4 (from UniProt P29387 1-340), the binding entry in assay [1] was “no binding”; in assay [2], “binds”.
